Results: PubChem BioAssay AID493014 (National Center for Advancing Translational Sciences (NCATS), 2011)
In all, about 340,000 compounds went through this assay and about 170 (0.05%) were called active. Inconclusive means that the source gave no clear call. Such entries were picked first, then a sample of the others. Calls follow the shape of the dose curve; as a rule, active = well fitted inhibition curve with a large enough effect in the signal ratio, with a control signal flat (not every such curve was filed as active); inconclusive = small, poorly fitted or top-dose-only effect, or effect the other way, or a change in a side signal; inactive = flat fitted curve, though single readings scatter; the % refers to the signal ratio. A potency beside an inconclusive call is a rough fit, not a confirmed value.

Assay: qHTS Assay to Find Inhibitors of Chronic Active B-Cell Receptor Signaling;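 as to activity change, negative = inhibition: plate controls were basal doxycycline-induced cells for no effect and cells given 10 µM MG132 for full effect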
Details: ABC-DLBCL IkBa-CBG/CBR reporter, luminescence ratio (green luciferase fused to IkBa over red control in TMD8 lymphoma cells), 4 h; activity change, negative = inhibition: at 46.1 µM (top of the series) unless noted
Summary of the method: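 Compounds up to 46 uM were incubated four hours with TMD8 cells whose green CBG68 luciferase is fused to IkappaBalpha; red CBR luminescence normalised the signal, and concentration-effect curves were fitted to fusion, red and ratio data.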
Potency is read from the fitted curve at half-maximal effect.

Compound | activity change, negative = inhibition | Potency
O=C(Nc1ccc(F)cc1)c1cc(S(=O)(=O)N2CCCCC2)ccc1F | inconclusive: -13.3% | 
O=C(CNC(=S)N(Cc1ccccc1)Cc1ccccc1F)NCCc1ccc(Cl)cc1 | inconclusive: -1.03% | 
O=C(NC1CCS(=O)(=O)C1)/C(=C/c1ccco1)NC(=O)c1ccccc1 (stereo unspecified) | inactive: -1.89% | 
O=C(COC(=O)/C=C/c1cn(-c2ccccc2)nc1-c1cccnc1)Nc1ccc(Cl)cc1Cl | inconclusive: -6.89% | 
CCc1ccc(NC(=O)C2(c3cccs3)CCOCC2)cc1 | inactive: 21.5% | 
O=[N+]([O-])c1cc(/C=N/O)ccc1Sc1ccccc1 |  | inconclusive: 6.51 µM [falling, partial curve]
CC(=O)Nc1ccc(S(=O)(=O)N2CCC(C(=O)N[C@@H](C)C(=O)NC3CCCC3)CC2)cc1 | inactive: -2.12% | 
CCO[C@@H]1OC(C(=O)NCc2ccccc2)=C[C@H](c2coc3ccccc3c2=O)[C@H]1CCCO | inconclusive: 20.5% | 
COc1ccc(C2CN=NC2C(=O)c2ccccc2)cc1 (stereo unspecified) | inconclusive: 12.5% | 
Fc1ccc(CNC(=S)NCc2ccccc2)cc1 | inactive: -0.946% | 
Cc1ccc(NC(=O)CN(C)C(=O)Cn2ncc(Cl)c(Cl)c2=O)cc1 |  | inconclusive: 14.6 µM [rising, partial curve, poor fit]
COc1cc(/C=N\NC(=O)c2cccc(Cl)c2)ccc1Oc1ccc([N+](=O)[O-])cn1 | inconclusive: -0.47% | 
c1cn2c(NC3CCCC3)c(-c3ccc(N4CCOCC4)cc3)nc2cn1 | inactive: -10.7% | 
CC1(CC(=O)N/N=C/c2cc3c(cc2Br)OCO3)OCCO1 |  | inconclusive: 11.2 µM [falling, partial curve]
CC[C@H](CO)Oc1cc(NCc2ccc(Cl)c(Cl)c2)c2ncn(C(C)C)c2c1 | inactive: -2.46% | 
O=C(O)COc1ccccc1/C=C1\SC(=Nc2ccc(F)cc2)N(c2ccc(F)cc2)C1=O |  | inconclusive: 25.1 µM [falling, single point]
COc1ccc(/C=C/C(=O)Nc2ccc(OC)cc2[N+](=O)[O-])cc1 | inactive: 0.119% | 
CCNC(=S)N/N=C/c1ccc(-c2ccccc2)o1 | inconclusive: 0.934% | 
COc1ccccc1OCCNC(=O)CN(c1cccc(C)c1)S(=O)(=O)c1ccccc1 | inconclusive: -1.26% | 
CC(=O)c1cccc(NC(=O)CN(c2ccccc2F)S(C)(=O)=O)c1 |  | inconclusive: 29.1 µM [rising, single point]
O=C(CCCc1c[nH]c2ccccc12)Nc1ccc2ccccc2c1 | inconclusive: 0.234% | 

Compound | activity change, negative = inhibition | Potency
COC(=O)c1ccc(Nc2c([N+](=O)[O-])c(=O)oc3ccccc23)cc1 |  | inconclusive: 22.4 µM [falling, single point]
CCn1nc(NC(=O)c2ccccn2)c2cc3cc(C)ccc3nc21 | inactive: 2.07% | 
CCCCOc1ccc(C(=O)Nc2ccc(C)cc2[N+](=O)[O-])cc1 | inconclusive: 0.301% | 
Nc1ccc(C23CC4CC(CC(CO)(C4)C2)C3)cc1 | inactive: 6.1% | 
Cc1nc(N)sc1C(=O)N/N=C/c1c[nH]c2ccccc12 |  | inconclusive: 0.58 µM [falling, full curve]
Cc1[nH]n(C(N)=S)c(=O)c1N=Nc1cccc(Cl)c1 |  | inconclusive: 0.631 µM [cytotoxic, partial curve, poor fit]
O=C(c1ccc2ncsc2c1)N1CCN(c2cccc(C(F)(F)F)c2)CC1 |  | inconclusive: 25.9 µM [falling, single point]
CC(C)N1C(=O)S/C(=C/c2ccccc2OCc2ccc(C(=O)O)cc2)C1=O |  | inconclusive: 15.8 µM [falling, single point]
COc1ccccc1N1CCN(C(=O)c2cc(=O)c3cc(C)ccc3o2)CC1 | inconclusive: -5.41% | 
COCCN(Cc1ccccc1)C(=S)Nc1ccc(Cl)cc1 | inconclusive: 28.9% | 
COc1ccc(NC(=S)N(Cc2ccc(C(=O)O)cc2)Cc2ccc(OC)c(OC)c2)cc1 | inactive: -8.95% | 
COCCn1c(-c2ccco2)csc1=Nc1cccnc1 |  | inconclusive: 5.8 µM [falling, partial curve, poor fit]
C=C(C)C(=O)Nc1cccc(C2=NOC3(C2)C[C@@H](C(N)=O)N(C(=O)/C=C/C=C/C)C3)c1 (stereo partly specified) | inconclusive: 1.47% | 
CCN(C(=O)c1cccs1)c1nnc(-c2ccncc2)s1 | inconclusive: 9.85% | 
CCOc1ccc(CN2C(=O)c3ccccc3C2C(=O)NCCc2ccc(OC)c(OC)c2)cc1 (stereo unspecified) | inconclusive: -95.4% | 
Cc1ccc(C(NC(=O)N2CCOCC2)=C(Cl)Cl)cc1F | inactive: 15.3% | 
Cn1c(C(=O)N[C@@H](Cc2ccccc2)C(=O)NCCC(=O)O)cc2cc(Cl)ccc21 | inconclusive: -8.94% | 
CC(=O)c1ccc(N2CCN(C(=O)c3c(-c4ccccc4Cl)noc3C)CC2)cc1 | inactive: 2.61% | 
N#C/C(=C(/O)CN1CCCCC1)c1nc(-c2ccc(Cl)cc2)cs1 | inactive: 12.9% | 
O=C(NNc1cccc(Cl)n1)c1ccc(Cl)cc1Cl | inconclusive: 1.51% | 
CN(Cc1ccccc1)c1ccc(N2C(=O)CCC2=O)cc1[N+](=O)[O-] | inconclusive: 18.3% | 

Compound | activity change, negative = inhibition | Potency
COC(=O)c1ccc(NC(=O)Cn2nc(C)cc2C)cc1 | inactive: -19.6% | 
CC(Sc1nnc(C2CC2)n1C1CC1)C(=O)Nc1ccccc1C#N (stereo unspecified) | inactive: 10.8% | 
CC(C)n1cnc2c(Nc3cccc(F)c3)nc(NCCO)nc21 | inconclusive: 14.9% | 
CC(=O)NC(=S)Nc1ccc(NC(=O)c2cccs2)cc1 |  | inconclusive: 23.1 µM [falling, single point]
CCOC(=O)Nc1ccc2nc(Sc3ccc(Cl)cc3)sc2c1 | inconclusive: 4.02% | 
O=C(NC(=S)N1CCc2ccccc21)c1ccccc1Br |  | inconclusive: 18.4 µM [falling, single point]
COc1cc(NC(=S)Nc2ncccc2C)cc(OC)c1OC | inactive: 0.555% | 
COc1cc(C(=O)NCc2cc(C)nc3ccccc23)cc(OC)c1OC |  | inconclusive: 5.01 µM [falling, full curve]
CC1CC(C)(C)NC(C)c2ccccc21 (stereo unspecified) | inconclusive: 10.9% | 
CC1CC(C)CN(C(=O)COC(=O)C2CCN(S(=O)(=O)c3ccc4c(c3)OCCO4)CC2)C1 (stereo unspecified) | inconclusive: -4.71% | 
COc1cc(NS(=O)(=O)c2cc3c(cc2C)NC(=O)CO3)cc(OC)c1 | inactive: -13.3% | 
CCOC(=O)N1CCC(c2cc(=O)n3[nH]c(C)c(-c4ccc(F)cc4)c3n2)CC1 | inactive: 0.223% | 
O=C(NN=C1CCCC1)c1n[nH]c2c1CCC2 | inconclusive: -1.91% | 
Cc1cccc(N2CCN(C(=S)NC3CCCCC3)CC2)c1C | inconclusive: -18.5% | 
COc1cccc(-c2cc(C(=O)Nc3cnn(Cc4ccccc4C)c3)no2)c1 |  | inconclusive: 14.1 µM [falling, partial curve, poor fit]
Cc1ccccc1CSCc1nc(N)nc(Nc2ccccc2C)n1 | inactive: -0.0789% | 
NC(=O)NC[C@@H]1CC[C@@H](Cc2ccc(-c3ccccc3)cc2)O1 |  | inconclusive: 16.4 µM [falling, single point]
CC1NC(=O)NC1CCCCC(=O)O (stereo unspecified) | inactive: 4.11% | 
S=c1[nH]nc(COc2ccc3c(c2)OCO3)n1-c1ccccc1 | inconclusive: 0.495% | 
COc1nc(Oc2ccc(=O)n(C)n2)nc(N(C)C)n1 | inconclusive: 2.61% | 
OC(CN1CCCC1)Cn1ccc2ccccc21 (stereo unspecified) | inactive: 7.22% | 

Compound | activity change, negative = inhibition | Potency
CSc1ccccc1N1CCN(C(=O)Nc2ccc3c(c2)NC(=O)CO3)CC1 |  | inconclusive: 15.8 µM [falling, partial curve]
N#CC1=C(SCC(=O)Nc2ccc(C(=O)O)cc2)NC(=O)CC1c1ccco1 (stereo unspecified) |  | inconclusive: 35.5 µM [falling, single point]
COC(=O)c1ccc(C)c(NC(=O)CCNC(=O)c2ccc([N+](=O)[O-])cc2)c1 | inconclusive: 2.26% | 
NS(=O)(=O)c1ccc(NC(=O)C2CCCN(S(=O)(=O)c3ccc(F)cc3)C2)cc1 (stereo unspecified) | inactive: -0.21% | 
C[C@]12c3[nH]c4ccc(Cl)cc4c3CCN1C(=O)[C@@H](CC(=O)NCCCn1ccnc1)C[C@@H]2C(=O)N1CCCCC1 | inconclusive: -0.808% | 
CCN(CC)C(=O)CSc1nnc(-c2ccc(S(=O)(=O)N3CCCC3)cc2)o1 | inconclusive: 5.28% | 
CC(=O)c1ccc(Nc2c3c(nc4ccccc24)CCCC3)cc1 |  | inconclusive: 3.55 µM [falling, single point]
COc1ccc(C(=O)COC(=O)CNC(=O)C2CCCCC2)c(OC)c1 | inconclusive: 16% | 
NC(=O)c1cc([N+](=O)[O-])ccc1NCCc1ccccc1 |  | inconclusive: 17.8 µM [falling, partial curve, poor fit]
COc1ccc(CC(=O)N(Cc2cc3cc(OC)ccc3[nH]c2=O)C(C)C)cc1 | inconclusive: -4.89% | 
O=C(COC(=O)CCc1c[nH]c2ccccc12)Nc1ccccc1 | inconclusive: 3% | 
COc1ccc(/C=N/N(Cc2ccccc2)c2ccccc2)cc1O |  | inconclusive: 31.6 µM [falling, partial curve, poor fit]
Cc1nn(-c2cccc(C(F)(F)F)c2)c(Cl)c1/C=N/Nc1cccc(C(=O)O)c1 | inconclusive: -0.19% | 
COCCn1c(C)cc(C(=O)COC(=O)c2ccc3ncsc3c2)c1C | inactive: -12.3% | 
Cc1ccc(NC(=O)C(C)Sc2nnc(-c3cccnc3)n2-c2ccccc2)cc1 (stereo unspecified) | inconclusive: 28.6% | 
CCn1cc(C(=O)NCCCN2CC(C)CC(C)C2)c(=O)c2cc(S(=O)(=O)N(C)C)ccc21 (stereo unspecified) | inconclusive: 7.51% | 
COCC(=O)N1CCC(n2nnc3cc(C(F)(F)F)ccc32)CC1 | inconclusive: 18% | 
COc1ccc(C(C(=O)NC2CCCCC2)N(C(=O)c2ccco2)c2ccccc2C(C)=O)cc1OC (stereo unspecified) | inconclusive: 1.34% | 
